Further values from the same series stand in other lists. *1 amine or outer side, *2 acyl side, *3 side chain or, on linkers, in order; H or OH if unused. Where a SMILES comes first, the peptide text is derived from it. Bridges are numbered along the chain shown (N, C = ends). Roman numbers before positions name the chains, in order. [ ]: non-standard residue; d: D form. The star is where a group is joined. ξ: configuration not given here. TATA = O=C(CC[*:1])N1CN(C(=O)CC[*:2])CN(C(=O)CC[*:3])C1; Dolaproine = CO[C@@H]([C@@H]1CCCN1)[C@@H](C)C(=O)O; X1 = CC[C@H](C)C(C(CC(=O)[*:2])OC)N(C)[*:1]; 1Nal = N[C@@H](Cc1cccc2ccccc12)C(=O)O; X3 = O=C(CCCC(=O)[*:2])NCCC(=O)[*:1]; PABC = O=C(OCc1ccc(N[*:1])cc1)[*:2]; Hyp = O=C(O)[C@@H]1C[C@@H](O)CN1; hArg = N=C(N)NCCCC[C@H](N)C(=O)O; Cit = NC(=O)NCCC[C@H](N)C(=O)O; X2 = CC(N*)[C@@H](O)c1ccccc1; ξNMeV = CNC(C(=O)O)C(C)C; ξV = CC(C)C(N)C(=O)O; Sar = CNCC(=O)O
Experiments:
[1] = system: MDA-MB-468 xenograft; test: Example 9.8: in vivo efficacy of BCY8245, BCY8781 and BCY8245 with BCY8234 in MDA-MB-468 xenograft in Balb/c nude mice; design: species or system Mus Musculus
[2] = system: MDA-MB-468 xenograft; test: Example 9.9: in vivo efficacy of BCY8245 alone or with BCY8234 in MDA-MB-468 xenograft (large tumors) in Balb/c nude mice; design: species or system Mus Musculus
[3] = system: MDA-MB-468 xenograft; test: Example 9.4: in vivo efficacy in MDA-MB-468 xenograft in Balb/c nude mice; settings: iv, day 21, mean ± SEM

CC[C@H](C)C(C(CC(=O)N1CCC[C@H]1[C@H](OC)[C@@H](C)C(=O)NC(C)[C@@H](O)c1ccccc1)OC)N(C)C(=O)[C@@H](NC(=O)C(C(C)C)N(C)C(=O)OCc1ccc(NC(=O)[C@H](CCCNC(N)=O)NC(=O)C(NC(=O)CCCC(=O)NCCC(=O)N(C)CC(=O)N(C)CC(=O)N(C)CC(=O)N(C)CC(=O)N(C)CC(=O)N(C)CC(=O)N(C)CC(=O)N(C)CC(=O)N(C)CC(=O)N(C)CC(=O)N[C@H]2CSCCC(=O)N3CN4CN(C3)C(=O)CCSC[C@H](NC(=O)[C@@H](CC(=O)O)NC(=O)[C@H](Cc3cccc5ccccc35)NC(=O)[C@@H]3CCCN3C2=O)C(=O)N[C@@H](CCSC)C(=O)N[C@@H](CCCCNC(=N)N)C(=O)N[C@@H](CC(=O)O)C(=O)N[C@@H](Cc2c[nH]c3ccccc23)C(=O)N[C@@H](CO)C(=O)N[C@@H]([C@@H](C)O)C(=O)N2CCC[C@H]2C(=O)N2C[C@H](O)C[C@H]2C(=O)N[C@@H](Cc2c[nH]c3ccccc23)C(=O)N[C@H](C(N)=O)CSCCC4=O)C(C)C)cc1)C(C)C (stereo partly drawn) [BCY8245, MMAE-PABC-Cit-Val-Glutaryl-BCY8234] (I: [Sar][Sar][Sar][Sar][Sar][Sar][Sar][Sar][Sar][Sar]CP[1Nal][dD]CM[hArg]DWSTP[Hyp]WC-NH2 / II: [ξV][Cit][PABC][ξNMeV]V[X1][Dolaproine]-X2; linker I:11-I:15-I:25 via TATA; linker I:N-II:N via X3)
Tumor volume ([1]; 3 mpk, qw, i.v., day 11): 92 mm^3 | Tumor volume ([1]; 3 mpk, qw, i.v., day 14): 66 mm^3 | Tumor volume ([1]; 3 mpk, qw, i.v., day 16): 58 mm^3 | Tumor volume ([1]; 3 mpk, qw, i.v., day 18): 41 mm^3 | Tumor volume ([1]; 3 mpk, qw, i.v., day 21): 27 mm^3 | Tumor volume ([1]; 3 mpk, qw, Mean ± SEM): 27 ± 1 mm^3 | Tumor volume ([1]; 3 mpk, qw, day 23): 22 ± 3 mm^3 | Tumor volume ([1]; 3 mpk, qw, day 25): 19 ± 3 mm^3 | Tumor volume ([1]; 3 mpk, qw, day 28): 20 ± 3 mm^3 | Tumor volume ([1]; 3 mpk, qw, day 30): 15 ± 2 mm^3 | Tumor volume ([1]; 3 mpk, qw, day 32): 15 ± 1 mm^3 | Tumor volume ([1]; 3 mpk, qw, day 35): 19 ± 2 mm^3 | Tumor volume ([1]; 3 mpk, qw, day 37): 16 ± 2 mm^3 | Tumor volume ([1]; 3 mpk, qw, day 39): 14 ± 1 mm^3 | Tumor volume ([1]; 3 mpk, qw, day 42): 14 ± 2 mm^3 | Tumor volume ([1]; 3 mpk, qw, day 44): 18 ± 4 mm^3 | Tumor volume ([1]; 3 mpk, qw, day 46): 19 ± 4 mm^3 | Tumor volume ([1]; 3 mpk, qw, day 49): 20 ± 4 mm^3 | Tumor volume ([1]; 3 mpk, qw, day 51): 18 ± 5 mm^3 | Tumor volume ([1]; 3 mpk, qw, day 53): 22 ± 4 mm^3 | Tumor volume ([1]; 3 mpk, qw, day 56): 21 ± 4 mm^3 | Tumor volume ([1]; 3 mpk, qw, day 58): 20 ± 5 mm^3 | Tumor volume ([1]; 3 mpk, qw, day 60): 18 ± 6 mm^3 | Tumor volume ([1]; 3 mpk, qw, day 64): 23 ± 6 mm^3 | Tumor volume ([1]; 3 mpk, qw, day 67): 23 ± 5 mm^3 | Tumor volume ([1]; 3 mpk, qw, day 71): 24 ± 7 mm^3 | Tumor volume ([1]; 3 mpk, qw, day 74): 27 ± 8 mm^3 | Tumor volume ([1]; 3 mpk, qw, day 78): 23 ± 6 mm^3 | Tumor volume ([1]; 3 mpk, qw, day 81): 27 ± 8 mm^3 | Tumor volume ([1]; 3 mpk, qw, day 84): 34 ± 7 mm^3 | Tumor volume ([1]; 3 mpk, qw, day 88): 32 ± 7 mm^3 | Tumor volume ([1]; 3 mpk, qw, day 91): 26 ± 6 mm^3 | Tumor volume ([1]; Group 1 (vehicle, qw) dosed with 5 mpk on PG-D32, day 35): 455 ± 81 mm^3 | Tumor volume ([1]; Group 1 (vehicle, qw) dosed with 5 mpk on PG-D32, day 37): 373 ± 92 mm^3 | Tumor volume ([1]; Group 1 (vehicle, qw) dosed with 5 mpk on PG-D32, day 39): 247 ± 48 mm^3 | Tumor volume ([1]; Group 1 (vehicle, qw) dosed with 5 mpk on PG-D32, day 42): 134 ± 18 mm^3 | Tumor volume ([1]; Group 1 (vehicle, qw) dosed with 5 mpk on PG-D32, day 44): 108 ± 3 mm^3 | Tumor volume ([1]; Group 1 (vehicle, qw) dosed with 5 mpk on PG-D32, day 46): 79 ± 3 mm^3 | Tumor volume ([1]; Group 1 (vehicle, qw) dosed with 5 mpk on PG-D32, day 49): 63 ± 8 mm^3 | Tumor volume ([1]; Group 1 (vehicle, qw) dosed with 5 mpk on PG-D32, day 51): 62 ± 5 mm^3 | Tumor volume ([1]; Group 1 (vehicle, qw) dosed with 5 mpk on PG-D32, day 53): 53 ± 12 mm^3 | Tumor volume ([1]; Group 1 (vehicle, qw) dosed with 5 mpk on PG-D32, day 56): 52 ± 13 mm^3 | Tumor volume ([1]; Group 1 (vehicle, qw) dosed with 5 mpk on PG-D32, day 58): 58 ± 0 mm^3 | Tumor volume ([1]; Group 1 (vehicle, qw) dosed with 5 mpk on PG-D32, day 60): 61 ± 7 mm^3 | Tumor volume ([1]; Group 1 (vehicle, qw) dosed with 5 mpk on PG-D32, day 64): 71 ± 23 mm^3 | Tumor volume ([1]; Group 1 (vehicle, qw) dosed with 5 mpk on PG-D32, day 67): 66 ± 14 mm^3 | Tumor volume ([1]; Group 1 (vehicle, qw) dosed with 5 mpk on PG-D32, day 71): 73 ± 5 mm^3 | Tumor volume ([1]; Group 1 (vehicle, qw) dosed with 5 mpk on PG-D32, day 74): 82 ± 4 mm^3 | Tumor volume ([1]; Group 1 (vehicle, qw) dosed with 5 mpk on PG-D32, day 78): 90 ± 8 mm^3 | Tumor volume ([1]; Group 1 (vehicle, qw) dosed with 5 mpk on PG-D32, day 81): 104 ± 17 mm^3 | Tumor volume ([1]; Group 1 (vehicle, qw) dosed with 5 mpk on PG-D32, day 84): 110 ± 1 mm^3 | Tumor volume ([1]; Group 1 (vehicle, qw) dosed with 5 mpk on PG-D32, day 88): 106 ± 7 mm^3 | Tumor volume ([1]; Group 1 (vehicle, qw) dosed with 5 mpk on PG-D32, day 91): 110 ± 3 mm^3 | Tumor volume ([2]; 1 mpk, qw, day 28, Mean ± SEM): 384 ± 41 mm^3 | Tumor volume ([2]; 3 mpk, qw, day 28, Mean ± SEM): 50 ± 17 mm^3 | Tumor volume ([2]; Gr. 3, 3 mpk, qw, day 79): 221 mm^3 | Tumor volume ([2]; Gr. 3, 3 mpk, qw, day 82): 198 mm^3 | Tumor volume ([2]; Gr. 3, 3 mpk, qw, day 86): 185 mm^3 | Tumor volume ([2]; Gr. 3, 3 mpk, qw, day 89): 180 mm^3 | Tumor volume ([2]; Gr. 3, 3 mpk, qw, day 93): 155 mm^3 | Tumor volume ([2]; Gr. 3, 3 mpk, qw, day 96): 166 mm^3 | Tumor volume ([2]; Gr. 3, 3 mpk, qw, day 100): 221 mm^3 | Tumor volume ([2]; Gr. 3, 3 mpk, qw, day 103): 250 mm^3 | Tumor volume ([2]; Group1, Vehicle, dosed with 5 mpk BCY8245 on PG-D28, day 65): 316 ± 212 mm^3 | Tumor volume ([2]; Group1, Vehicle, dosed with 5 mpk BCY8245 on PG-D28, day 68): 347 ± 215 mm^3 | Tumor volume ([2]; Group1, Vehicle, dosed with 5 mpk BCY8245 on PG-D28, day 72): 368 ± 242 mm^3 | Tumor volume ([2]; Group1, Vehicle, dosed with 5 mpk BCY8245 on PG-D28, day 75): 385 ± 245 mm^3 | Tumor volume ([2]; Group 2, 1 mpk, change in 5 mpk on PG-D28, day 62): 145 ± 29 mm^3 | Tumor volume ([2]; Group 2, 1 mpk, change in 5 mpk on PG-D28, day 65): 163 ± 31 mm^3 | Tumor volume ([2]; Group 2, 1 mpk, change in 5 mpk on PG-D28, day 68): 173 ± 32 mm^3 | Tumor volume ([2]; Group 2, 1 mpk, change in 5 mpk on PG-D28, day 72): 180 ± 36 mm^3 | Tumor volume ([2]; Group 2, 1 mpk, change in 5 mpk on PG-D28, day 75): 196 ± 40 mm^3 | Tumor volume ([2]; Group3, 3 mpk, qw, day 62): 146 ± 70 mm^3 | Tumor volume ([2]; Group3, 3 mpk, qw, day 65): 147 ± 74 mm^3 | Tumor volume ([2]; Group3, 3 mpk, qw, day 68): 155 ± 81 mm^3 | Tumor volume ([2]; Group3, 3 mpk, qw, day 72): 170 ± 89 mm^3 | Tumor volume ([2]; Group3, 3 mpk, qw, day 75): 223 ± 115 mm^3 | Tumor volume ([3]; 3 mpk, biw): 22 ± 4 mm^3 | Tumor volume ([3]; 3 mpk, qw): 85 ± 31 mm^3 | Tumor volume ([3]; 5 mpk, qw): 29 ± 3 mm^3
